Reference: PubChem BioAssay AID1259254 (NCATS, 2017)

Screen: 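Genome-wide screen for genes that prevent DNA re-replication in cancer cells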 (primary screen)
Cell system: human HCT116 colorectal cancer cells
Reagents: single siRNA against human genes
Timing: 3 days
Measurement: 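Nuclei stained with Hoechst and imaged; cell-cycle phase assigned by DNA content; G2 share scaled per plate, non-targeting siRNA 0%, GMNN siRNA 100%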
Direction: G2 robust z-score and G2 cells, % of GMNN control: higher = more G2 cells, more excess DNA replication; raw share of cells in G2: higher = larger share of cells with G2 DNA content
Hit rule: 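Active siRNAs have a G2 robust z of 5 or more median absolute deviations over the median, which in these data means about 38% or higher of GMNN control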
The whole screen tested about 59,000 reagents; shown is a random part of them. About 1,550 of them (2.6%) were called active. 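G2 share is only a proxy for re-replication; each gene was hit by three separate siRNAs, and active genes were retested.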 Raw values are not corrected between plates. The numbers tell different reagents against one gene apart. Not given: the amount of reagent.

no.	gene knocked down	reagent no.	G2 robust z-score	G2 cells, % of GMNN control	raw share of cells in G2 (%)	outcome
1	LRRC27	1	0.299	5.07	6.55	inactive
2	LRRC27	2	4.92	37.6	20.7	inactive
3	LRRC27	3	-0.236	1.3	2.73	inactive
4	GID8	1	-0.0805	2.4	4.46	inactive
5	GID8	2	0.589	7.11	7.27	inactive
6	GID8	3	-0.122	2.11	3.89	inactive
7	NCKAP1L	1	0.305	5.11	7.7	inactive
8	NCKAP1L	2	-0.691	-1.89	3.39	inactive
9	NCKAP1L	3	1.05	10.4	7.58	inactive
10	SF3A1	1	2.71	22	15.3	inactive
11	SF3A1	2	2.77	22.5	11.1	inactive
12	SF3A1	3	5.51	41.7	22.9	active
13	TMTC2	1	-0.825	-2.84	4.6	inactive
14	TMTC2	2	2.13	17.9	11.3	inactive
15	TMTC2	3	0.874	9.12	8.53	inactive
16	ATP6V1B1	1	0.3	5.08	7.14	inactive
17	ATP6V1B1	2	-0.544	-0.857	4.49	inactive
18	ATP6V1B1	3	3.21	25.6	14.3	inactive
19	HAGHL	1	3.15	25.1	14.1	inactive
20	HAGHL	2	1.15	11	8.19	inactive
21	HAGHL	3	1.03	10.2	9.69	inactive
22	CCDC47	1	0.896	9.27	8	inactive
23	CCDC47	2	2.22	18.6	13.3	inactive
24	CCDC47	3	-0.201	1.56	3.52	inactive
25	CYSLTR2	1	-1.28	-6.02	3.69	inactive
26	CYSLTR2	2	-0.879	-3.22	3.39	inactive
27	CYSLTR2	3	5.68	42.9	16.4	active
28	NMRAL1	1	0.416	5.89	4.9	inactive
29	NMRAL1	2	-0.137	2	5.14	inactive
30	NMRAL1	3	1.2	11.4	9.9	inactive
31	SIL1	1	-0.204	1.53	6.28	inactive
32	SIL1	2	0.183	4.26	5.85	inactive
33	SIL1	3	3.44	27.2	14.1	inactive
34	EFCAB3	1	-0.5	-0.553	3.64	inactive
35	EFCAB3	2	0.0902	3.6	4.03	inactive
36	EFCAB3	3	-0.451	-0.203	3	inactive
37	MARCKSL1	1	3.15	25.1	15.5	inactive
38	MARCKSL1	2	6.22	46.7	25.6	active
39	MARCKSL1	3	3.84	30	10.6	inactive
40	MBD3L1	1	0.56	6.91	7.02	inactive
41	MBD3L1	2	0.645	7.51	5.35	inactive
42	MBD3L1	3	-0.341	0.571	3.11	inactive
43	FAM131C	1	-0.397	0.172	4.26	inactive
44	FAM131C	2	1.46	13.3	8.54	inactive
45	FAM131C	3	-0.189	1.64	3.98	inactive
46	SIX2	1	5.58	42.2	21.5	active
47	SIX2	2	0.761	8.32	7.57	inactive
48	SIX2	3	-0.345	0.537	3.37	inactive
49	PRSS37	1	0.689	7.81	7.12	inactive
50	PRSS37	2	-0.238	1.29	3.51	inactive
51	PRSS37	3	-0.441	-0.135	2.53	inactive
52	LOC390877	1	-0.502	-0.562	3.29	inactive
53	LOC390877	2	0.139	3.95	6.43	inactive
54	LOC390877	3	-0.725	-2.14	3.03	inactive
55	SGMS2	1	2.75	22.3	10.8	inactive
56	SGMS2	2	0	2.97	4.2	inactive
57	SGMS2	3	-0.332	0.631	3.75	inactive
58	ANKRD36B	1	3.45	27.3	11.7	inactive
59	ANKRD36B	2	2.68	21.8	12.9	inactive
60	ANKRD36B	3	-1.07	-4.57	2.27	inactive
61	LINC01114	1	1.79	15.5	9.31	inactive
62	LINC01114	2	0.483	6.37	5.51	inactive
63	LINC01114	3	-0.523	-0.714	3.05	inactive
64	ANKRD54	1	-0.562	-0.987	3.8	inactive
65	ANKRD54	2	2.26	18.9	9.08	inactive
66	ANKRD54	3	-0.787	-2.57	1.65	inactive
67	XIRP2	1	1.45	13.1	9.44	inactive
68	XIRP2	2	-0.903	-3.39	3.51	inactive
69	XIRP2	3	0.479	6.34	8.61	inactive
